Results are given in words; binding and its absence hold for the method and conditions named. Binding seen in cells or lysates may run through a third protein. Some results given as binding are weak or reduced against the parent protein; the word gives no strength.
Tests used:
[1] = target: β2 integrin (mouse (endogenous in BMDMs)) (UniProt P11835); assay: co-IP; BMDMs with or without SHP2 deletion, treated with PMA (100 ng/ml, 15 minutes), Western blot
[2] = target: T1, SIRPα (endogenous in mouse tumor-infiltrating macrophages) (mouse (endogenous in TIMs)) (UniProt P97797); assay: proximity ligation; TIMs isolated from MC38 and CT26 s.c. tumors; signal visualized and quantified as discrete spots
T1 sequence: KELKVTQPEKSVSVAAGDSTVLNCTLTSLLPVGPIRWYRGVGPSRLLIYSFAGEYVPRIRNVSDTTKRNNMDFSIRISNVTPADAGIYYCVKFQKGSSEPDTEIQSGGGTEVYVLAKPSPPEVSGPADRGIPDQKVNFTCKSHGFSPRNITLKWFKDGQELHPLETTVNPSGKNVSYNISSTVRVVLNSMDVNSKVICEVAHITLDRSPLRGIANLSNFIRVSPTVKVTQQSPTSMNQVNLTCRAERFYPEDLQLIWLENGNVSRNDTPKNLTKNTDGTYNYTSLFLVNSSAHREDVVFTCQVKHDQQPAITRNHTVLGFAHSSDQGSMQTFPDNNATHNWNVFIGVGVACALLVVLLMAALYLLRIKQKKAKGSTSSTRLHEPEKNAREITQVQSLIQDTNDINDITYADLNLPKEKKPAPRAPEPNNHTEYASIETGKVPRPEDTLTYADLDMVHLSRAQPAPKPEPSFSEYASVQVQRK

Chains of the proteins cited; added tags and fusions are not shown. Residues count along the entry.
UniProt P11835, residues 24-771: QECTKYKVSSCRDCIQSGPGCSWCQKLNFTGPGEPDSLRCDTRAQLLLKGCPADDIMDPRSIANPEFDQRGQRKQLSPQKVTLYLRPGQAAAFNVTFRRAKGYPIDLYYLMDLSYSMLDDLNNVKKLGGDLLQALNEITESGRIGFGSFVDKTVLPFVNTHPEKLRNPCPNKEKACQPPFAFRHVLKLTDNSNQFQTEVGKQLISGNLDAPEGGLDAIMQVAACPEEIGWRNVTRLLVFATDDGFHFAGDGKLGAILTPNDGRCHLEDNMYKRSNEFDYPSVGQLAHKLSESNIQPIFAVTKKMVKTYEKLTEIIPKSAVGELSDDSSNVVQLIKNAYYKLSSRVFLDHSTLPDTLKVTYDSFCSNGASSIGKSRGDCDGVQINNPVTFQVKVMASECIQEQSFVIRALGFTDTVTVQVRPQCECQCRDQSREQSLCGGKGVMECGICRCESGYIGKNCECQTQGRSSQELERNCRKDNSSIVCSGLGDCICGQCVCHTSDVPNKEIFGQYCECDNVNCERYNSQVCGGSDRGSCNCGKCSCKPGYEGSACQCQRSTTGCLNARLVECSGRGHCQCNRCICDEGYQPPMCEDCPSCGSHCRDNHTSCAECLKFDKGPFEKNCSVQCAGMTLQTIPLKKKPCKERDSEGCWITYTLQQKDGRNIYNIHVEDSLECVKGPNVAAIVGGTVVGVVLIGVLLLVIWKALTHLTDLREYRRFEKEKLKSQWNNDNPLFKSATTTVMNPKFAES
UniProt Q8K1B8: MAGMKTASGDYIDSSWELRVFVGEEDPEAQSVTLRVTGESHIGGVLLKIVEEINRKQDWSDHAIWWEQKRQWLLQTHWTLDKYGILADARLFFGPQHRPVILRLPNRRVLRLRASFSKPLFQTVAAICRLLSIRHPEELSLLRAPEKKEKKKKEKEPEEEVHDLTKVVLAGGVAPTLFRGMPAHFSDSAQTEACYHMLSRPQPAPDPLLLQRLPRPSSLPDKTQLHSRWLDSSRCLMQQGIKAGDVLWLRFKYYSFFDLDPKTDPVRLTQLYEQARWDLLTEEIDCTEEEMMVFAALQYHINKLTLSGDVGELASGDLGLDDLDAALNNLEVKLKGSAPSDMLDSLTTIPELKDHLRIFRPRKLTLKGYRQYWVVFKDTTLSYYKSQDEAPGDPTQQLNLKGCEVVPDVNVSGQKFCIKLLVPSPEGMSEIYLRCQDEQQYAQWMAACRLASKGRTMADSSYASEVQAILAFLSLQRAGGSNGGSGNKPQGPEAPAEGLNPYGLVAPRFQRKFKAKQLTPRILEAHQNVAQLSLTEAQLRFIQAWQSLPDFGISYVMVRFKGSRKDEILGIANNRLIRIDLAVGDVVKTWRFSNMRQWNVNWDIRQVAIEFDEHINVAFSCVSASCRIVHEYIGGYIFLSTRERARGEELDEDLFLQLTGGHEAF
UniProt P29351: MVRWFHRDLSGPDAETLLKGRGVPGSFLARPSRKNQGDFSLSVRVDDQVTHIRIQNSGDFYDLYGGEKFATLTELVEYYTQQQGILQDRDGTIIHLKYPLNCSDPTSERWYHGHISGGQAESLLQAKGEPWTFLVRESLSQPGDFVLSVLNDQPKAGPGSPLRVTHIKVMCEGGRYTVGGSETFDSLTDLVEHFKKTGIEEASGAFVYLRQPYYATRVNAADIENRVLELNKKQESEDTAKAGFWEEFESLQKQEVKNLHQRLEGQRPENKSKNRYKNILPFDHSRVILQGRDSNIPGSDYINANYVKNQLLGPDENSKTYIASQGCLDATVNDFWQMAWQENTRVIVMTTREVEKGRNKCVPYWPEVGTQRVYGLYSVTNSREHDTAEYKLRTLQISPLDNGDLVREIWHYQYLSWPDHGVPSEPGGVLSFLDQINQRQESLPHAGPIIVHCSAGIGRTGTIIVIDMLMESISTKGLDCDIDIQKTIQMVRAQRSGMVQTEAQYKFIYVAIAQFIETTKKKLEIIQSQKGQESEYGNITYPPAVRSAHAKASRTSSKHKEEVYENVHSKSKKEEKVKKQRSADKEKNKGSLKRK

Substance: Kindlin3 (from UniProt Q8K1B8 1-665)
- binding [1]: binds

Substance: SHP1 (endogenous in mouse tumor-infiltrating macrophages) (from UniProt P29351 1-595) (enzyme)
- binding [2]: binds

From PMC9927946
